GI50, IC50 and EC50 data for 2 compounds are collected here from patent US20240408093A1, “HETEROBIFUNCTIONAL COMPOUNDS AND THEIR USE IN TREATING DISEASE” (HALDA THERAPEUTICS OPCO, INC., priority 2022, published 2024).

Protein sequences, listed by entry. Tags and fused reporters are not part of them. Residues count along the entry.
UniProt P01116, 1-188 isoform 2 G12C: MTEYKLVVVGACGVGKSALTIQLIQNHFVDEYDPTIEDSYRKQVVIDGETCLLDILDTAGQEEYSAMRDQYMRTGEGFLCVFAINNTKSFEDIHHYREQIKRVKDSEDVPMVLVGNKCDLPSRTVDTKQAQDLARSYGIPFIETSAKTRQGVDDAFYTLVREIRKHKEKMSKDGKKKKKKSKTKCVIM
UniProt P01116, 2-169 isoform 2 G12C limits assumed: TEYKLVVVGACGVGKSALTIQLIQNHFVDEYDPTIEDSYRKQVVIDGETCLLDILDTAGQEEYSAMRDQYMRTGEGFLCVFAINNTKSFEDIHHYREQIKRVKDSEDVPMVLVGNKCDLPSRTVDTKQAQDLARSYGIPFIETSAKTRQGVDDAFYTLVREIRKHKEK

In experiment [1] the test system is HEK293 cells (ATCC CRL-1573). The experiment in a line: Cellular growth inhibition assay, HEK293 cells (Example 16). The settings on record: read-out: HEK293 (GI50), 72 hours, CellTiter-Glo 2.0. As to the method: (§1) Exemplary compounds were tested for ability to inhibit the proliferation of HEK293 cells (ATCC CRL-1573) and HeLa cells (ATCC CCL-2).
HEK293 and HeLa cells were cultured in DMEM (Gibco 11995), supplemented with 10% Heat-inactivated FBS (Gibco A38400-01) and 1% Penicillin/Streptomycin (Gibco 15140-122) at 37° C. with 5% CO2 in a humidified tissue culture incubator. Cells were seeded at 500 cells/well in 384-well, Poly-D-lysine-treated blackplates (Perkin Elmer 6007710) in 25 μL media lacking selection for 18-24 hours. Plates were spun at 300 g for 30 seconds and stored in the incubator overnight. After 24 hours, a 25 μL aliquot of compound-containing medium was added in each well, at a final top concentration of 10 μM test compound, with 3-fold dilutions, using DMSO alone as a negative control. Plates were then spun at 300×g for 3 minutes again and cultured at 37° C. with 5% CO2. After 72 hours, cell viability was quantified with CellTiter-Glo 2.0 (Promega). After equilibrating cell plates at room temperature for 30 minutes, 25 μL CellTiter-Glo 2.0 reagent was dispensed into each well. Plates were mixed on a shaker for 2 minutes at 500 rpm, followed by a 10-minute incubation at room temperature. Luminescence readings were measured with an EnVision Plate Reader (Perkin Elmer). Data was normalized to DMSO treated cell wells. […]

The subject of experiment [2] is HeLa cells (ATCC CCL-2). The experiment in a line: Cellular growth inhibition assay, HeLa cells (Example 16). The settings on record: read-out: HeLa (GI50), 72 hours, CellTiter-Glo 2.0. How it is done: as §1
HEK293 and HeLa cells were cultured in DMEM (Gibco 11995), supplemented with 10% Heat-inactivated FBS (Gibco A38400-01) and 1% Penicillin/Streptomycin (Gibco 15140-122) at 37° C. with 5% CO2 in a humidified tissue culture incubator. Cells were seeded at 500 cells/well in 384-well, Poly-D-lysine-treated blackplates (Perkin Elmer 6007710) in 25 μL media lacking selection for 18-24 hours. Plates were spun at 300 g for 30 seconds and stored in the incubator overnight. After 24 hours, a 25 μL aliquot of compound-containing medium was added in each well, at a final top concentration of 10 μM test compound, with 3-fold dilutions, using DMSO alone as a negative control. Plates were then spun at 300×g for 3 minutes again and cultured at 37° C. with 5% CO2. After 72 hours, cell viability was quantified with CellTiter-Glo 2.0 (Promega). After equilibrating cell plates at room temperature for 30 minutes, 25 μL CellTiter-Glo 2.0 reagent was dispensed into each well. Plates were mixed on a shaker for 2 minutes at 500 rpm, followed by a 10-minute incubation at room temperature. Luminescence readings were measured with an EnVision Plate Reader (Perkin Elmer). Data was normalized to DMSO treated cell wells. A four-parameter non-linear regression curve fit was applied to dose-response data in Prism to determine the half maximal growth inhibitory concentration (GI50) of each compound.

Experiment [3] concerns the target T1, KRAS G12C (Homo sapiens, UniProt P01116, G12C). The experiment in a line: KRAS G12C nucleotide exchange assay (SOS1-mediated, HTRF). The settings on record: 1 hr pre-incubation. As to the method: KRAS target engagement (IC50 determination) was performed using a KRAS G12C nucleotide exchange assay. Specifically, compounds were tested against KRAS G12C in 10-point concentration IC50 mode with 3-fold serial dilution at a starting concentration of 10 μM. ARS1620 was used as a control.
Briefly, GST-tagged KRAS G12C (amino acids 2-169) was mixed with anti-GST Tb antibody (1.5× solution) and 10 μL was delivered to reaction wells. Compounds were delivered using an acoustic dispenser (Echo, Labcyte) and pre-incubated with protein for 1 hr at RT. KRAS/anti-GST Tb Ab/compound mixture was incubated for 1 hour at room temperature. A 3× solution of SOS1 (amino acids 564-1049) and GTP-DY-647P1 (GTP*) was prepared in reaction buffer. A 5 μL aliquot of SOS1/GTP* solution was added to reaction wells to initiate the exchange reaction. No-SOS1 reaction or max compound concentration was used as blank. The final concentrations of KRAS G12C, SOS1, and GTP* were 30 nM, 20 nM, and 0.15 μM, respectively. SOS1 mediated exchange of GDP to GTP-DY-647P was measured using HTRF (Ex/Em=(320-75/665-7.5; 615-8.5)) using an Envision Plate Reader (Perkin Elmer). IC50 determination was performed using a Sigmoidal dose response (variable slope) equation.

Experiment [4] addresses T1, KRAS G12C. The experiment in a line: KRAS G12C cellular target engagement assay (SW1573 cells). The following applies: read-out: TE50, 17 hours. As to the method:
SW1573 cells (ATCC CRL-2170) were cultured in RPMI 1640 (Gibco A1049101), supplemented with 10% Heat-inactivated FBS (Gibco Cat. #A38400-01) and 1% Penicillin/Streptomycin (Gibco Cat. #15140-122) in an incubator set at 37° C. and 5% CO2. Cells were seeded at 100,000 cells/ml in 1 ml of complete media in a 24-well, tissue culture-treated plate (Falcon 353226) and incubated overnight. Cells were treated with increasing concentrations of compound and let incubate at 37C and 5% CO2 for 17 hours, after which media was aspirated and cells were lysed in 75 uL RIPA Lysis and Extraction Buffer (Thermo 89901) supplemented with 5 mM MgCl2, Protease and Phosphatase inhibitor cocktail (Thermo 1861281), and Universal Nuclease (Thermo 88700). Plates with RIPA were shaken at 4° C. at 600 rpm for 15 min. After shaking samples, they were collected and spun down at 21,000 g for 15 min at 4° C. Following centrifugation, ˜10 ug of lysate was added to Laemmli Sample Buffer (Bio-Rad 1610747) plus 10% beta-mercaptoethanol, boiled for 15 minutes at 65° C. and loaded onto 12% Mini-PROTEAN TGX™ Precast Protein Gels (Bio-Rad). Protein was transferred to a nitrocellulose membrane (Thermo LC2000) using the iBlot 2 Dry Blotting System (Thermo). After transfer, membranes were washed in 1× TBST (Bioland Scientific LLC TBST0103) 3× for 5 min. […]

The match of structure and compound is tentative.

For `C=C(COC(=O)NCCc1cc(Cl)cc(NC(=O)NCc2ccc3c(c2)CN(C2CCC(=O)NC2=O)C3=O)c1)C(=O)N1CCN(c2nc(OC[C@@H]3CCCN3C)nc3c2CCN(c2cccc4cccc(Cl)c24)C3)C[C@@H]1CC#N` (some centres unmarked), the GI50 in experiment [1] was 1500 to 10000 nM; in experiment [2], over 10000 nM. In addition, the IC50 in experiment [3] is under 100 nM. Besides, in experiment [4], the EC50 lay in the range of 250 to 5000 nM.
Regarding `C=C(COC(=O)N1CCN(c2nc(NCc3nc4cc(C)ccc4[nH]3)n3ncc(Br)c3n2)CC1)C(=O)N1CCN(c2nc(OC[C@@H]3CCCN3C)nc3c2CCN(c2cccc4cccc(Cl)c24)C3)C[C@@H]1CC#N`, the GI50 in experiment [1] and in experiment [2] was under 500 nM throughout. Also, in experiment [3], the IC50 is under 100 nM. Moreover, in experiment [4], the EC50 fell in the range of 250 to 5000 nM.
